According to the supplement of paper PMC5407854, “Inhibitor of ppGalNAc-T3-mediated O-glycosylation blocks cancer cell invasiveness and lowers FGF23 levels” (eLife, 2017):
In all, about 1,700 compounds were measured (“T3 sensor activation Q score (MG/GFP ratio z-score vs DMSO controls)”: median about 0.25, highest 2% from about 1.9 on). This is one part of the list.

Tested on: ppGalNAc-T3 sensor
Test: T3 sensor activation Q score (MG/GFP ratio z-score vs DMSO controls) (SD units); higher = more sensor activation (inhibition of ppGalNAc-T3 glycosylation)
Details: HEK293 sensor cells; 10 µM; 6 h
Description: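 Cells were treated with compound at 10 uM for 6 h, then MG/GFP ratio was read by flow cytometry (10,000 cells per well, duplicate wells). Q = (R - R_neg)/SD_neg relative to DMSO vehicle controls; the signal rises when the glycosyltransferase is inhibited.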

SMILES	T3 sensor activation Q score
COc1cc(OC)c2c(=O)cc(-c3cccnc3)oc2c1	1.35
Cc1nc(SCC(=O)O)n[nH]1	-0.95
CCN(CC)CCNC(=O)c1ccc(NCN2C(=O)NC(c3ccccc3)(c3ccccc3)C2=O)cc1	0.9
Cn1c(=O)c2c(nc(N3CCOCC3)n2C)n(C)c1=O	1
C=CC1CN2CCC1CC2C(O)c1ccnc2ccc(OC)cc12 (stereo not drawn)	0.15
Cc1ccc(C)c(-n2c(-c3ccc(Br)cc3)csc2=NC(=O)c2ccccc2F)c1	-0.1
O=C(C=C=Nc1ccccc1)C(=O)N=C=Cc1ccccc1	-2.1
O=C(Nc1ccc(F)cc1)OCCOc1ccc([N+](=O)[O-])cc1	0.95
COc1ccc(NC2=NC(C)(CO)CS2)cc1 (stereo not drawn)	0.85
CN1CCC(=C(c2ccc(Cl)cc2)c2ccccn2)CC1	-0.25
Cc1nn(-c2ccccc2)nc1C(=O)Nc1ccc2[nH]ncc2c1	1.35
Cc1ccc(N=Nc2ccc(C)cc2NC(=O)Nc2ccccc2F)cc1	1.3
CN(C)c1ccc(/C=N\NC(=O)c2cnc3ccccc3c2)cc1	0.8
CCNc1ccccc1C(=O)O	0.05
CC(C)(C)c1ccc(NS(=O)(=O)c2ccc(N)cc2)cc1	-0.15
CC(C)(C)c1ccc(C(=O)N2CCOC23CCCCC3)cc1	1.85
NC(=O)CCC(C(=O)O)N1C(=O)c2ccc(O)cc2C1=O (stereo not drawn)	-0.1

SMILES	T3 sensor activation Q score
C/C(=N/O)[C@H]1CC[C@H]2[C@@H]3CC[C@@H]4C/C(=N\O)CC[C@]4(C)[C@H]3[C@@](C)(O)C[C@]12C	-1.3
C=C1SC(=Nc2c(C)cccc2Cl)N(C(=O)c2sc3ccccc3c2Cl)C12CCCCC2	0.8
COc1ccc(OCC(O)CN2CCN(c3ccc(Cl)cc3)CC2)cc1 (stereo not drawn)	-1.55
Cc1ccc(S(=O)(=O)CCOC(=O)CNC(=O)OCc2ccccc2)cc1	0.85
CCOC(=O)C(=CNc1ccccc1Cl)C(=O)OCC	0.65
Cc1nc2ccc(N)nc2nc1C	1
Nc1nc(Cl)nc2c1ncn2[C@@H]1O[C@H](CO)[C@@H](O)[C@@H]1F	0.75
Cc1ccc(C)c(C(=O)CCC(=O)O)c1	0.85
O=C1c2ccccc2C(=Cc2cccnc2)c2ccccc21	0.75
CSc1nc(=S)cc(C)[nH]1	-0.15
O=C(Nc1ccc(Nc2ccncc2)cc1)c1ccc(Nc2ccnc3ccc([N+](=O)[O-])cc23)cc1	9.85
Cc1ccccc1NC(=S)Nc1ccccn1	-0.2
COc1c(NC=O)c2c(c([N+](=O)[O-])c1OC)C(=O)OC2	0.95
O=S1(=O)CSCS(=O)(=O)C1	-0.85
CC(C)(C)N1CC(OC(N)=O)C1	1.65
c1ccc2c(c1)[nH]c1c3ccccc3sc21	-0.95

Reprinted from above, 2 compounds:
SMILES	T3 sensor activation Q score
O=S1(=O)CSCS(=O)(=O)C1	-0.85
CC(C)(C)N1CC(OC(N)=O)C1	1.65
